For 54 sequences, binding signal results are on record in article PMC7819943, “Rice protein-binding microarrays: a tool to detect cis-acting elements near promoter regions in rice”.

Chains of the proteins cited; added tags and fusions are not shown.
UniProt Q0JBA9, entry or part of it: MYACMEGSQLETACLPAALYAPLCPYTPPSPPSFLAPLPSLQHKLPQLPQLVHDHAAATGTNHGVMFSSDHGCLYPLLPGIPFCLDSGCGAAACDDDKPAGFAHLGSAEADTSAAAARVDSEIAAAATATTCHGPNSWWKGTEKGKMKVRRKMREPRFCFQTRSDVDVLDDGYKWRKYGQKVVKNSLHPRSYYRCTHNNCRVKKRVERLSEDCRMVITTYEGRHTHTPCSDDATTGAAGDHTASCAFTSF

The other results are listed elsewhere or left out.

For the assay, the target named is OsWRKY34 (Oryza sativa, UniProt Q0JBA9 1-250). In words: protein-binding microarray (RPBM); PBS, 2% BSA, 51.3 ng/ul salmon testes DNA, 50 uM zinc acetate, 200 nM TF, 25 C, 1 h; high values mean tight binding. The conditions noted are these: protein: recombinant; tags: N-terminal polyhistidine and DsRed monomer fusion (pET32a); label: CyDye5-dUTP incorporated in the synthesized complementary strand; 3' TTTTT single-stranded linker to array surface; dsDNA, one strand shown. The method in brief:
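Transcription factors, each fused N-terminally to a polyhistidine tag and DsRed, were expressed in E. coli BL21-CodonPlus and purified on Ni–NTA. A custom Agilent array was made double-stranded by primer extension with Cy5-dUTP and blocked with 2% BSA. It was incubated with 200 nM protein in PBS, 2% BSA, salmon testes DNA and 50 µM zinc acetate at 25 °C for 1 h, then washed. The binding signal is per-feature fluorescence intensity (arbitrary units) read on an Axon 4000B scanner.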
With “TATCTCTCTTTCTCTTTCTTCGTGTCGTCGACTTCGCATGCGGAGTCACCTAGTGCAG”, the binding signal was 8320 fluorescence intensity (a.u.).
To “TCTCACCAGCTATCTTCTCACCGGCTGCTTCTCAGAATATCGGAGTCACCTAGTGCAG” belongs 10500 fluorescence intensity (a.u.); to “CCTCTCCTCTCTCGCCGCCCACCTCGCCGTCGCCGCCGCCCGGAGTCACCTAGTGCAG”, 10200 fluorescence intensity (a.u.).
Take “GTTTATATTCATGATTTTTGATTTTTACTCTTTGCTTCACCGGAGTCACCTAGTGCAG”: the binding signal is 10900 fluorescence intensity (a.u.).
To “TTGTATGTACGGCCACTTATTAATTACCTCAAGATTCATCCGGAGTCACCTAGTGCAG” belongs 8440 fluorescence intensity (a.u.).
Next, “GCCTCCGTCGCCGTCGCCGCTCGCACTGCTACCCGTCGTCCGGAGTCACCTAGTGCAG”: 8490 fluorescence intensity (a.u.); “CTTTCTAACTGAACTCTCCTGCTACATCAATACATATAAGCGGAGTCACCTAGTGCAG”: 8530 fluorescence intensity (a.u.); “GTAGAGATGGGCTGGGCTGGGGTGAGGAAAGAAAGAGGAGCGGAGTCACCTAGTGCAG”: 9680 fluorescence intensity (a.u.).
To “CTCATCCGGCCTGACCAGCCTCTACACACAGCCACGTTGACGGAGTCACCTAGTGCAG” belongs 10500 fluorescence intensity (a.u.); to “ACGTATTCACGGCTTCATGCCATGCCACAGTGATATCTATCGGAGTCACCTAGTGCAG”, 8060 fluorescence intensity (a.u.); to “TCCAACTTCCAACCCCAATGCCCACGAGCACTCGCCACGTCGGAGTCACCTAGTGCAG”, 8320 fluorescence intensity (a.u.).
With “AATTAAATCAATCTTTGTTCCGGCTGTGTCTTGTTCCCAACGGAGTCACCTAGTGCAG”, the binding signal was 8390 fluorescence intensity (a.u.).
To “ATCTCATCCTTCCCCAACCTTTCTCTTCTCCTTGAACACACGGAGTCACCTAGTGCAG” belongs 11100 fluorescence intensity (a.u.); to “CCTTTGTCGTCCTGCAACCATCCAACCCAATCTTCATTTTCGGAGTCACCTAGTGCAG”, 8170 fluorescence intensity (a.u.).
To “TTGCATTTTGTCGATCCCAATTCCCAACTGCTCACTGATTCGGAGTCACCTAGTGCAG” belongs 9280 fluorescence intensity (a.u.); to “AACTACATCTTACAATTAACACTACTGTCTATGTCTCAATCGGAGTCACCTAGTGCAG”, 11500 fluorescence intensity (a.u.); to “CCTCGTGCTCTTCCCATCCGCGACTCCAAAATTCCCGTCCCGGAGTCACCTAGTGCAG”, 8590 fluorescence intensity (a.u.).
With “ATATAACCGGCTACTGTATTCCTTTTTTTGATTTTTCTTTCGGAGTCACCTAGTGCAG”, the binding signal was 9450 fluorescence intensity (a.u.).
Next, “GTTGACCTGTGTGTGTCTATATCCTCATCTCCCAACTTCCCGGAGTCACCTAGTGCAG”: 8910 fluorescence intensity (a.u.); “GACGTTCGATTTTTTCTGCTGCGGGGATGGGTACGGGGTGCGGAGTCACCTAGTGCAG”: 14800 fluorescence intensity (a.u.).
Next, “GCCTTCCTTTTGGTCGTCGTCGTCTTCGTACGTTGGCCTCCGGAGTCACCTAGTGCAG”: 9500 fluorescence intensity (a.u.).
Next, “TGTCTCATTTTTCTATATGTTGTTTGGTGTGCCTTGAGAACGGAGTCACCTAGTGCAG”: 9110 fluorescence intensity (a.u.); “ATTCCTTATATGCCATTGAAATTTGGTCTGGTCCTTGATACGGAGTCACCTAGTGCAG”: 9660 fluorescence intensity (a.u.); “AGTGTGGTGGCAATTTTTCAAAAAAAAAACCCTCCGTTGCCGGAGTCACCTAGTGCAG”: 8070 fluorescence intensity (a.u.).
“CAATTCGGCCATCCTTGATCACATAAACACAAGAAAAACACGGAGTCACCTAGTGCAG”: the binding signal was 8620 fluorescence intensity (a.u.).
Next, “AGGCCCATTTAAGCCCACGTTTCTCTTGTCCTCAACCCCACGGAGTCACCTAGTGCAG”: 8980 fluorescence intensity (a.u.).
Next, “TTGTTGTAATTGATATATGGGTCTACGGTTTTTATTATTTCGGAGTCACCTAGTGCAG”: 10400 fluorescence intensity (a.u.).
To “AATTTTCTTGTCCTTGTACTCCCCGATTTCATATTCTAAACGGAGTCACCTAGTGCAG” belongs 10100 fluorescence intensity (a.u.); to “TTGGTTAGTTGCCACTCTCTCTCGCCGTGACCCTTTTTTACGGAGTCACCTAGTGCAG”, 20600 fluorescence intensity (a.u.); to “AATTTTTTTCATTAGTGACATGGTTCAAATCTTAACATCCCGGAGTCACCTAGTGCAG”, 8390 fluorescence intensity (a.u.).
Regarding “CACTCTCCCGTGCGCTTTCTTGATCTCGTTGAATTCCGCGCGGAGTCACCTAGTGCAG”, the binding signal was 15000 fluorescence intensity (a.u.).
Take “TGCCTGCATGCCGCCTCTCGCATGTATTGTGTTATTTTGGCGGAGTCACCTAGTGCAG”: the binding signal is 8990 fluorescence intensity (a.u.).
For “TATCAGTTCCGTGATATTGGGCGGGATGTGGATGTTGAGTCGGAGTCACCTAGTGCAG”, the binding signal is 10900 fluorescence intensity (a.u.).
To “CCGGTGTGTTGTATTAAGTGGTATTTTATCCGAACCCAATCGGAGTCACCTAGTGCAG” belongs 10800 fluorescence intensity (a.u.); to “CTCGCATTATCTTCTTCCCCAATTTGCGCCGCTACTAGTACGGAGTCACCTAGTGCAG”, 8120 fluorescence intensity (a.u.); to “CAGAATCGCAGCCATATCTTCCCTTGTCCATCCGCCAACGCGGAGTCACCTAGTGCAG”, 8820 fluorescence intensity (a.u.).
Next, “ACATCACTTACCAATAATCACTGACCATGCACATTTTCGACGGAGTCACCTAGTGCAG”: 8780 fluorescence intensity (a.u.); “CACATTTACATTTGGTTCACCGCCGGAATAAACTGTACCACGGAGTCACCTAGTGCAG”: 8330 fluorescence intensity (a.u.).
To “CCTTGTTTTGCTTTTCTTTCTTCATGAATGCATTCTCTCACGGAGTCACCTAGTGCAG” belongs 9860 fluorescence intensity (a.u.); to “TTGACCCCGTATACGATCATCTGTTAGCTACCGTATATCCCGGAGTCACCTAGTGCAG”, 9040 fluorescence intensity (a.u.); to “AGCTAACGTTTCAGTCGCCTTCTTTCTGTATAGCACCACTCGGAGTCACCTAGTGCAG”, 8540 fluorescence intensity (a.u.).
With “GTGATTATTTCGACAGTGTTCATATTGTTTATCCCCTATTCGGAGTCACCTAGTGCAG”, the binding signal is 9180 fluorescence intensity (a.u.).
Next, “TCACTTTTTTGTTAATATTTTTGTTGTCATTTTACTATTTCGGAGTCACCTAGTGCAG”: 9060 fluorescence intensity (a.u.); “CTCCTCGCCGTCACCTCGATCGGCCCGTCAATCTGTTCTCCGGAGTCACCTAGTGCAG”: 8080 fluorescence intensity (a.u.).
Next, “ATTTCCACGTCGTCTGTTATTTTGTGCTGCTTCTCTCTTGCGGAGTCACCTAGTGCAG”: 11200 fluorescence intensity (a.u.).
In the case of “TACATGTTAAATCGATTCCAGCTGCCAGCATAATCACATTCGGAGTCACCTAGTGCAG”, the binding signal is 8570 fluorescence intensity (a.u.).
To “GACTTGATAATTACCTTATTCTGTGTTCTGTGATAGCCTTCGGAGTCACCTAGTGCAG” belongs 9420 fluorescence intensity (a.u.).
For “TGCATATTCTTTTCTCTGTTTCTTCCTTGCAACAAAAATACGGAGTCACCTAGTGCAG”, the binding signal is 8480 fluorescence intensity (a.u.).
Next, “TGTTCCTCCACGTCGCTCCGCCGCTCCGCCCGCCTTGCTTCGGAGTCACCTAGTGCAG”: 10900 fluorescence intensity (a.u.).
Turning to “CCTCTTCCGAGCTGTCTCCCATGACACCACCGCCGCCGCCCGGAGTCACCTAGTGCAG”, the binding signal is 10200 fluorescence intensity (a.u.).
Turning to “GTTGTTGCCGCGATGCTTGGACTCTCTATTCTTCTCTTGCCGGAGTCACCTAGTGCAG”, the binding signal is 8500 fluorescence intensity (a.u.).
Regarding “TGTTTTGTGGGGAGGGGTGTACATATACAACTTAGTACTCCGGAGTCACCTAGTGCAG”, the binding signal is 20300 fluorescence intensity (a.u.).
Next, “AGCAGCAGTTAGCATCTCCTTTATGCCTCCTTTATGCTTTCGGAGTCACCTAGTGCAG”: 9940 fluorescence intensity (a.u.); “CACTTATCCATCCGCTGACACCTGCACAAACAAACCAGTTCGGAGTCACCTAGTGCAG”: 8970 fluorescence intensity (a.u.).
